Source: PMC7431843
No constants are given. Whether binding was seen depends on the method and setting. Binding seen in cells or lysates may run through a third protein. For part of these data: Where a sequence is shown, tags or fusion partners need not be part of it.

Chains of the proteins cited; added tags and fusions are not shown. Residues count along the entry.
UniProt O94986: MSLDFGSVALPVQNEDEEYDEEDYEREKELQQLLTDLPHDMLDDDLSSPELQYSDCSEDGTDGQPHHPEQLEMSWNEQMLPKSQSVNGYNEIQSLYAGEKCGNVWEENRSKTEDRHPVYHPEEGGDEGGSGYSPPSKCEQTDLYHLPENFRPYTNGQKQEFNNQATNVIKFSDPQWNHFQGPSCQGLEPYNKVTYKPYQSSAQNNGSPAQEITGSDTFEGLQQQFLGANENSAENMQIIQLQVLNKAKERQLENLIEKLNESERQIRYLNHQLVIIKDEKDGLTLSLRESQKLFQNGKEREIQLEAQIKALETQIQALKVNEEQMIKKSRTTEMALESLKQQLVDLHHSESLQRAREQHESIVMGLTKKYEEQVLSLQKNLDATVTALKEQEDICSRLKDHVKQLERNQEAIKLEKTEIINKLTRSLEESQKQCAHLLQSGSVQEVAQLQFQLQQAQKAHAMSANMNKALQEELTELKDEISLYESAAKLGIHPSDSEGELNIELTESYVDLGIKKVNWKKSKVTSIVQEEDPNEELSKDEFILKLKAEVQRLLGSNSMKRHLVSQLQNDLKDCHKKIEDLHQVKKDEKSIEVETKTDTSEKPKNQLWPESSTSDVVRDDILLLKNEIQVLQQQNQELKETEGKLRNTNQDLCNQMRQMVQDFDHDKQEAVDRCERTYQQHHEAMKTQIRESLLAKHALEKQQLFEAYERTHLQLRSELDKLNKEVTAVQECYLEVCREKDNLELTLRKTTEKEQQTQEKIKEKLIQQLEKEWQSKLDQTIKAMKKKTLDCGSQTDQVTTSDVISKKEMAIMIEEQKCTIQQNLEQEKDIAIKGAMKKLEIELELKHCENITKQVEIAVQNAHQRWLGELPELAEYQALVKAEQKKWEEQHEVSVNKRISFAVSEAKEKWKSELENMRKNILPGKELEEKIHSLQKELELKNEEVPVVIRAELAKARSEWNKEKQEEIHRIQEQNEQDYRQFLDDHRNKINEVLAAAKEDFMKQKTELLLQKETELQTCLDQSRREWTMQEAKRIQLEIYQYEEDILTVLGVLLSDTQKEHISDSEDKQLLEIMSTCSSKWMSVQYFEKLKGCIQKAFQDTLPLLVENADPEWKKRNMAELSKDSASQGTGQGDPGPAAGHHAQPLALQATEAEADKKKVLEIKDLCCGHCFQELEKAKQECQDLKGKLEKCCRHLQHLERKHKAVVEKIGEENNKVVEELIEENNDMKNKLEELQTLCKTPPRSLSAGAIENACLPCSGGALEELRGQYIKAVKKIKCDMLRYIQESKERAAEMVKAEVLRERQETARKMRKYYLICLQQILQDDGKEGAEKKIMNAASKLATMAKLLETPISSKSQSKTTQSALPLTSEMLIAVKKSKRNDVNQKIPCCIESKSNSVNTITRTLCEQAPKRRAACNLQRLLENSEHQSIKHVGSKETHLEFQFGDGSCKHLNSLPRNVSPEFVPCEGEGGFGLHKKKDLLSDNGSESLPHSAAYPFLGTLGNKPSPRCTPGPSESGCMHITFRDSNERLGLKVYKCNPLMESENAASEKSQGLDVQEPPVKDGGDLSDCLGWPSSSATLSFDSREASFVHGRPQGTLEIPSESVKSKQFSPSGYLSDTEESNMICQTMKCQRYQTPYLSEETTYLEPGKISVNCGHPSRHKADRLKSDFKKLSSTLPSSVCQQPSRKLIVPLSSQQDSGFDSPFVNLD
UniProt Q8TEP8, residues 1-2436: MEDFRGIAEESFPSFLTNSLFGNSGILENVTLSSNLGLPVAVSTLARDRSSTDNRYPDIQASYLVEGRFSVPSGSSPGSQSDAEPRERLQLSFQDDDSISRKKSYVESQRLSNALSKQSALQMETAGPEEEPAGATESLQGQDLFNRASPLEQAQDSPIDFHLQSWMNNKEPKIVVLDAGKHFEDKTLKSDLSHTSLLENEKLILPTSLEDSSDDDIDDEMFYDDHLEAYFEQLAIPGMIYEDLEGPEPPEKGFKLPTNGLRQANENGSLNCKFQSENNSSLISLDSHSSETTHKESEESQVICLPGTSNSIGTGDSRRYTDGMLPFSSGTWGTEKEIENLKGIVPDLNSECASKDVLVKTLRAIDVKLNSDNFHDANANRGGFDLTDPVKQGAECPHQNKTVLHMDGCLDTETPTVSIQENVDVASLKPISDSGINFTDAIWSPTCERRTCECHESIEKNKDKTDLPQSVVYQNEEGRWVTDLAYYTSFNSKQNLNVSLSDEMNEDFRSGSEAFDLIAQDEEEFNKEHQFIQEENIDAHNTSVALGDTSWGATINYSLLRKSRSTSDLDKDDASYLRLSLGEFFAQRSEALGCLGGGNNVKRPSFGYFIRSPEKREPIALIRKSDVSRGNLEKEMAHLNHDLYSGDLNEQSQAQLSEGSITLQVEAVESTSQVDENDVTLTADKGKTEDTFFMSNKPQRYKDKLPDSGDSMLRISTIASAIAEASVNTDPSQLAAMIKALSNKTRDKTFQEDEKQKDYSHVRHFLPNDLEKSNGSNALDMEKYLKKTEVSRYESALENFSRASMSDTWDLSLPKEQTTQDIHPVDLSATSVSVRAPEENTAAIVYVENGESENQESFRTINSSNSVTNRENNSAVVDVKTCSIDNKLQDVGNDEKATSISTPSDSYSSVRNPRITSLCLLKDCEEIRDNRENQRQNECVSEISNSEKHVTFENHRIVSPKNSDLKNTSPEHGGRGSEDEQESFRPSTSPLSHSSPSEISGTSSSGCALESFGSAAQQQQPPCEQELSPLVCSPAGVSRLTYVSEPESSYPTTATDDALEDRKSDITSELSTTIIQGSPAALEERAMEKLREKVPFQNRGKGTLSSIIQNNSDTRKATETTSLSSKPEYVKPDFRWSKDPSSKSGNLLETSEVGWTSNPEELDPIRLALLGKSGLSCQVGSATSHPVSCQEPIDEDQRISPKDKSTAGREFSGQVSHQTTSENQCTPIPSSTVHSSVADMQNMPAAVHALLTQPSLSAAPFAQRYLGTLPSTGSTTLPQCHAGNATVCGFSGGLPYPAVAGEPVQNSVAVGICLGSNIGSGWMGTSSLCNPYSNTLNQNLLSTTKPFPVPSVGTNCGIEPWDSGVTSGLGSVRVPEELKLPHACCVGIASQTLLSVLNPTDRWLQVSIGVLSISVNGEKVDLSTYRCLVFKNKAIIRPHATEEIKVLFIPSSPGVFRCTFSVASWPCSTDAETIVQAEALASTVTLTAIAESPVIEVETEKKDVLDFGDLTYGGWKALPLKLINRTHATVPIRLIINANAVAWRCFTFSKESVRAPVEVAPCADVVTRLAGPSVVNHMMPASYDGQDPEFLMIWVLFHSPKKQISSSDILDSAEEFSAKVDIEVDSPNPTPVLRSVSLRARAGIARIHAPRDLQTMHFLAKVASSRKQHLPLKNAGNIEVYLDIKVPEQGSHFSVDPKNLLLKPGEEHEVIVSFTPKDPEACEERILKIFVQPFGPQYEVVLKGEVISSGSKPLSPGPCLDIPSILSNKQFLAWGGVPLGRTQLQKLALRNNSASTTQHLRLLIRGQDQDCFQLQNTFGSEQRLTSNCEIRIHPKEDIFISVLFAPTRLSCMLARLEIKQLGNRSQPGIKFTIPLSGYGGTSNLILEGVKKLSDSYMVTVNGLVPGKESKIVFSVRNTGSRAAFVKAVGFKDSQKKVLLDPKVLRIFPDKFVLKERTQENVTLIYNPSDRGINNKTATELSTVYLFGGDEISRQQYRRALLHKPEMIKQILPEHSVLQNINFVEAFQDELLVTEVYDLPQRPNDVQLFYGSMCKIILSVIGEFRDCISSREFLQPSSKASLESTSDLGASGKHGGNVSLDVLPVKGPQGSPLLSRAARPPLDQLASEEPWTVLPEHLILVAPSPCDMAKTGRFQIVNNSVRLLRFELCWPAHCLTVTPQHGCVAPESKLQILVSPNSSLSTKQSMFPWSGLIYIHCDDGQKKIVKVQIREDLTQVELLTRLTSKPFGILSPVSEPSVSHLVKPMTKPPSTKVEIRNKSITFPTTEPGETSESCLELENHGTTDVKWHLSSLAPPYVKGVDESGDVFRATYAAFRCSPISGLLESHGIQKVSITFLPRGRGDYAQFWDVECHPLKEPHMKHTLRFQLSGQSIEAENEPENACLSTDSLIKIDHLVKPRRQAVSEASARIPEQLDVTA

Experiments:
Assay in all cases: co-IP; reciprocal co-immunoprecipitation after coexpression in HEK293T cells (24 h); TNTE lysis buffer (Tris-HCl pH 7.5, 120 mM NaCl, 1% Triton X-100, 1 mM EDTA); anti-FLAG M2 affinity gel, or rabbit polyclonal mCherry, RFP or GFP antibodies with Protein G Sepharose; beads washed 6x with lysis buffer supplemented with 500 mM NaCl; immunoblot
[1] = target: BirA*-Flag-CEP152 (UniProt O94986)
[2] = target: T1, Flag-CEP135 (UniProt Q66GS9)
T1 sequence: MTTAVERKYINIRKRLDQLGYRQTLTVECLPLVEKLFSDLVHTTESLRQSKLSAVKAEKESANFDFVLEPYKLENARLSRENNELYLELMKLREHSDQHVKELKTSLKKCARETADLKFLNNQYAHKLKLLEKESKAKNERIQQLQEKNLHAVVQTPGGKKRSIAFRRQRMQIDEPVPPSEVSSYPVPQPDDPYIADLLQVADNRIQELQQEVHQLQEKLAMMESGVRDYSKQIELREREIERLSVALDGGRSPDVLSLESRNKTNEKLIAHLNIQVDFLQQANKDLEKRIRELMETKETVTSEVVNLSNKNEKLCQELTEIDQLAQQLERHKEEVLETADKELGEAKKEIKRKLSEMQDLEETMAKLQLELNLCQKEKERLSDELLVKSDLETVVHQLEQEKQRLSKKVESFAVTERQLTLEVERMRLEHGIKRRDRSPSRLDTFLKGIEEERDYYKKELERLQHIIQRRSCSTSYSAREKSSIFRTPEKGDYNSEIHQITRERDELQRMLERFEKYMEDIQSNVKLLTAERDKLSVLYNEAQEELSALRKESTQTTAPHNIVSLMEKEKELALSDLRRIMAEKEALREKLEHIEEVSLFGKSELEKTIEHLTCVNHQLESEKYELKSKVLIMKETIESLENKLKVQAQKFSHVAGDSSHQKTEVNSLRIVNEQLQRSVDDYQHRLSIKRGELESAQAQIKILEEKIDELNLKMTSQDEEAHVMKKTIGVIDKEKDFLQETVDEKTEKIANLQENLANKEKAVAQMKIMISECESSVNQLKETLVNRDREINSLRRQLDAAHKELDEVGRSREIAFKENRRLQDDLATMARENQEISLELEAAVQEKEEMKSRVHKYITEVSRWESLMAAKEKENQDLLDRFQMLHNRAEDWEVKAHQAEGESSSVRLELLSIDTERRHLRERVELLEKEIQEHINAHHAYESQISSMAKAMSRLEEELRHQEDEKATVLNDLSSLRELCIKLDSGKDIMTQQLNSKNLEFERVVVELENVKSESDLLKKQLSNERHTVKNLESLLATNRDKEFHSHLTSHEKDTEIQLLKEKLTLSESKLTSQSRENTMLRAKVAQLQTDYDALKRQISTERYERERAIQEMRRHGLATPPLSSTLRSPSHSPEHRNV

[3] = target: Flag-CEP192 (1–2436) (UniProt Q8TEP8)

Measured: binding

B1: RFP-FAM46C (protein, UniProt Q5VWP2 1-391)
chain: MAEESSCTRDCMSFSVLNWDQVSRLHEVLTEVVPIHGRGNFPTLEITLKDIVQTVRSRLEEAGIKVHDVRLNGSAAGHVLVKDNGLGCKDLDLIFHVALPTEAEFQLVRDVVLCSLLNFLPEGVNKLKISPVTLKEAYVQKLVKVCTDTDRWSLISLSNKNGKNVELKFVDSIRRQFEFSVDSFQIILDSLLFFYDCSNNPISEHFHPTVIGESMYGDFEEAFDHLQNRLIATKNPEEIRGGGLLKYSNLLVRDFRPTDQEEIKTLERYMCSRFFIDFPDILEQQRKLETYLQNHFAEEERSKYDYLMILRRVVNESTVCLMGHERRQTLNLISLLALRVLAEQNIIPSATNVTCYYQPAPYVSDGNFSNYYVAHPPVTYSQPYPTWLPCN
no binding: all assays above
